Results published in US20250064934A1 (CENTURY THERAPEUTICS, published 2025).
No constants are given. Whether binding was seen depends on the method and setting. Some results given as binding are weak or reduced against the parent protein; the word gives no strength. Tags and fused reporters may be left off the sequences shown.

Chains of the proteins cited; added tags and fusions are not shown. Lines headed by an entry give the natural chain unless they say otherwise; changes in a name come on top. A line that says so, or that is headed by a name, gives the form on record, which may keep a tag or linker.
CD22Δ2-3 (P20273, form named): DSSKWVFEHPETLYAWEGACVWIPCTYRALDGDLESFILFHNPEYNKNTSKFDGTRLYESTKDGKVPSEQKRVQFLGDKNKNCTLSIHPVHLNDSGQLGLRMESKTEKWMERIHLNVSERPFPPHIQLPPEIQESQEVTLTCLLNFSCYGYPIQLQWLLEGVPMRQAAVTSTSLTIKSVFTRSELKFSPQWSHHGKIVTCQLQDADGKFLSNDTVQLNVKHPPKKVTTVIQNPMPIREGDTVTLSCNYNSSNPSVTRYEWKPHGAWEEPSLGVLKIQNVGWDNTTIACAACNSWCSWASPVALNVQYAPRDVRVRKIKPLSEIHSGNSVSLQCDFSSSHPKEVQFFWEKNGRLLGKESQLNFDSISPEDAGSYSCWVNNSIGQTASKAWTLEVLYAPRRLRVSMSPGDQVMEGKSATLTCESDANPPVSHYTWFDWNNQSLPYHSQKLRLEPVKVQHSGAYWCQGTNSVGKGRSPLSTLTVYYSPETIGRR

B1: PROT265 (D04) VHH-Fc fusion protein (Fc fusion)
chain: QVQLVESGGGLVQAGGSLRLSCAASGSEFTGYPMGWFRQAPGKEREFVAGSVGIGGSTNYADSVKGRFTISRDNAKNTVYLQMNSLKPEDTAVYYCAADKDYYKPYSRYRTVIRYETWGQGTQVTVSS
notes: also called CD22_D04; not shown: human IgG1 Fc domain
B2: PROT740 (E04) VHH-Fc fusion protein (Fc fusion)
chain: EVQLLESGGGLVQPGGSLRLSCAASGFTSSSYVMGWYRQAPGKEREFVSSISTGGDAYYADSVKGRFTISRDNSKNTLYLQMNSLRAEDTAVYYCAADVWYYHGGAYDYWGQGTQVTVSS
notes: VHH fused to the human IgG1 Fc domain; not shown: human IgG1 Fc domain

Key:
CD22Δ2-3 [1] = biological target: CD22Δ2-3 (UniProt P20273); test: BLI (ForteBio Octet), VHH-Fc captured on anti-human IgG Fc biosensor tips
CD22Δ2-3 [2] = biological target: CD22Δ2-3 (UniProt P20273); test: binding to full length CD22 and deletion variants (legend of FIG. 2)

Binder | binding (CD22Δ2-3 [1]) | binding (CD22Δ2-3 [2])
B1 | binds | binds
B2 | binds | binds
